Test results from paper doi:10.1101/2024.02.15.580437.
These are yes or no findings as the source states them, for the method shown. In cells and extracts the contact can be indirect. Here binding means that the protein was enriched with, or labelled near, the bait; the list need not be complete. Sequences can lack the tags named with a protein.

The chains behind the UniProt entries cited, without tags or fusion partners. Where a name states a change or a piece, a line headed by the entry shows the natural chain unless it says otherwise.
UniProt P46379: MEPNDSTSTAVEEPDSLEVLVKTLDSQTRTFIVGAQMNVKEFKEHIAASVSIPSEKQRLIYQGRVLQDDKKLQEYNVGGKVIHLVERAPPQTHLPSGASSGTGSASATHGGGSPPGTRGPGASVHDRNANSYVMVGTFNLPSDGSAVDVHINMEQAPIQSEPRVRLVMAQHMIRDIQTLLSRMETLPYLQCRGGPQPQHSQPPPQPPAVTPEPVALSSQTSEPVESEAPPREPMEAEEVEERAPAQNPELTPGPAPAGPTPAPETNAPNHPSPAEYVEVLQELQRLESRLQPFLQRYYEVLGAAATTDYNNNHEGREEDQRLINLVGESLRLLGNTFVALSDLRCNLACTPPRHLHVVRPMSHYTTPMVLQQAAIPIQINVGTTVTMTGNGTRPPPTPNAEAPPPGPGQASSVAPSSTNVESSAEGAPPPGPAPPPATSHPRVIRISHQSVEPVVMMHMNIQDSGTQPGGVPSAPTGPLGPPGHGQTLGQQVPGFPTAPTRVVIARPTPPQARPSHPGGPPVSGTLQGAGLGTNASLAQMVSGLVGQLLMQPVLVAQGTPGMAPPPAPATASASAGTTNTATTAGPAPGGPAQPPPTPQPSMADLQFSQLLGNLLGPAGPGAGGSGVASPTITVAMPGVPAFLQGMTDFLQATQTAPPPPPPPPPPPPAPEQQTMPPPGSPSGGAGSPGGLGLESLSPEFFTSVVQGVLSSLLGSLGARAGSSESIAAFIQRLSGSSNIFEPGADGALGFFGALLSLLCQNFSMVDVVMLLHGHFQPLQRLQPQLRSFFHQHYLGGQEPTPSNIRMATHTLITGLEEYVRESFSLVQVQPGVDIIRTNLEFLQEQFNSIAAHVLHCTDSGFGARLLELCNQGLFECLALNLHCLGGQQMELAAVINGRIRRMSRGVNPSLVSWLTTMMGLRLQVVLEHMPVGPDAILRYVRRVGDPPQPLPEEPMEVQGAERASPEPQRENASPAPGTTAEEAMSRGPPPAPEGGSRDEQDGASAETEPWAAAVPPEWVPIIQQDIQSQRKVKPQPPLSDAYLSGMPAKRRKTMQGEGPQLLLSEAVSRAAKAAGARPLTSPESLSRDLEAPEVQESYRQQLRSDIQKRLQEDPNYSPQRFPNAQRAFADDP
UniProt P25787: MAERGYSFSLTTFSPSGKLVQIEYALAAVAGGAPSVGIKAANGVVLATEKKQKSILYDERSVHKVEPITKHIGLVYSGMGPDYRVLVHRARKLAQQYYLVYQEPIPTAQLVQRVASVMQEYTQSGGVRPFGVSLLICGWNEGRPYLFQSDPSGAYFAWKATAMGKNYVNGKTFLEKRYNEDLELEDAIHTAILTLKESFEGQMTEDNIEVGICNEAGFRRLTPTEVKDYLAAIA
UniProt P49721: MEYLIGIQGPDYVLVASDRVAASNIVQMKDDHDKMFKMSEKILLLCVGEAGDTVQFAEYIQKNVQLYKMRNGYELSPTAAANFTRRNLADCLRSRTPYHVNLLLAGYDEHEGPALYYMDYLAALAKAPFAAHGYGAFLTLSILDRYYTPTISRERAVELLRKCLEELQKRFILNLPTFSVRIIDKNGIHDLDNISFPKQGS
UniProt P28070: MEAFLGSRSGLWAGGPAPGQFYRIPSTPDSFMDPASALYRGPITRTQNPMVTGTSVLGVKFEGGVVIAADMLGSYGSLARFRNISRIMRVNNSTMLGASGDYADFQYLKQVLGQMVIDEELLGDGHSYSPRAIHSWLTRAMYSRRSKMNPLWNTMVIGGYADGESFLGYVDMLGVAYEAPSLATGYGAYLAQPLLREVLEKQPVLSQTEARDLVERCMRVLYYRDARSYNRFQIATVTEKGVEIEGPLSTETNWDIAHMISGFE
UniProt O95071: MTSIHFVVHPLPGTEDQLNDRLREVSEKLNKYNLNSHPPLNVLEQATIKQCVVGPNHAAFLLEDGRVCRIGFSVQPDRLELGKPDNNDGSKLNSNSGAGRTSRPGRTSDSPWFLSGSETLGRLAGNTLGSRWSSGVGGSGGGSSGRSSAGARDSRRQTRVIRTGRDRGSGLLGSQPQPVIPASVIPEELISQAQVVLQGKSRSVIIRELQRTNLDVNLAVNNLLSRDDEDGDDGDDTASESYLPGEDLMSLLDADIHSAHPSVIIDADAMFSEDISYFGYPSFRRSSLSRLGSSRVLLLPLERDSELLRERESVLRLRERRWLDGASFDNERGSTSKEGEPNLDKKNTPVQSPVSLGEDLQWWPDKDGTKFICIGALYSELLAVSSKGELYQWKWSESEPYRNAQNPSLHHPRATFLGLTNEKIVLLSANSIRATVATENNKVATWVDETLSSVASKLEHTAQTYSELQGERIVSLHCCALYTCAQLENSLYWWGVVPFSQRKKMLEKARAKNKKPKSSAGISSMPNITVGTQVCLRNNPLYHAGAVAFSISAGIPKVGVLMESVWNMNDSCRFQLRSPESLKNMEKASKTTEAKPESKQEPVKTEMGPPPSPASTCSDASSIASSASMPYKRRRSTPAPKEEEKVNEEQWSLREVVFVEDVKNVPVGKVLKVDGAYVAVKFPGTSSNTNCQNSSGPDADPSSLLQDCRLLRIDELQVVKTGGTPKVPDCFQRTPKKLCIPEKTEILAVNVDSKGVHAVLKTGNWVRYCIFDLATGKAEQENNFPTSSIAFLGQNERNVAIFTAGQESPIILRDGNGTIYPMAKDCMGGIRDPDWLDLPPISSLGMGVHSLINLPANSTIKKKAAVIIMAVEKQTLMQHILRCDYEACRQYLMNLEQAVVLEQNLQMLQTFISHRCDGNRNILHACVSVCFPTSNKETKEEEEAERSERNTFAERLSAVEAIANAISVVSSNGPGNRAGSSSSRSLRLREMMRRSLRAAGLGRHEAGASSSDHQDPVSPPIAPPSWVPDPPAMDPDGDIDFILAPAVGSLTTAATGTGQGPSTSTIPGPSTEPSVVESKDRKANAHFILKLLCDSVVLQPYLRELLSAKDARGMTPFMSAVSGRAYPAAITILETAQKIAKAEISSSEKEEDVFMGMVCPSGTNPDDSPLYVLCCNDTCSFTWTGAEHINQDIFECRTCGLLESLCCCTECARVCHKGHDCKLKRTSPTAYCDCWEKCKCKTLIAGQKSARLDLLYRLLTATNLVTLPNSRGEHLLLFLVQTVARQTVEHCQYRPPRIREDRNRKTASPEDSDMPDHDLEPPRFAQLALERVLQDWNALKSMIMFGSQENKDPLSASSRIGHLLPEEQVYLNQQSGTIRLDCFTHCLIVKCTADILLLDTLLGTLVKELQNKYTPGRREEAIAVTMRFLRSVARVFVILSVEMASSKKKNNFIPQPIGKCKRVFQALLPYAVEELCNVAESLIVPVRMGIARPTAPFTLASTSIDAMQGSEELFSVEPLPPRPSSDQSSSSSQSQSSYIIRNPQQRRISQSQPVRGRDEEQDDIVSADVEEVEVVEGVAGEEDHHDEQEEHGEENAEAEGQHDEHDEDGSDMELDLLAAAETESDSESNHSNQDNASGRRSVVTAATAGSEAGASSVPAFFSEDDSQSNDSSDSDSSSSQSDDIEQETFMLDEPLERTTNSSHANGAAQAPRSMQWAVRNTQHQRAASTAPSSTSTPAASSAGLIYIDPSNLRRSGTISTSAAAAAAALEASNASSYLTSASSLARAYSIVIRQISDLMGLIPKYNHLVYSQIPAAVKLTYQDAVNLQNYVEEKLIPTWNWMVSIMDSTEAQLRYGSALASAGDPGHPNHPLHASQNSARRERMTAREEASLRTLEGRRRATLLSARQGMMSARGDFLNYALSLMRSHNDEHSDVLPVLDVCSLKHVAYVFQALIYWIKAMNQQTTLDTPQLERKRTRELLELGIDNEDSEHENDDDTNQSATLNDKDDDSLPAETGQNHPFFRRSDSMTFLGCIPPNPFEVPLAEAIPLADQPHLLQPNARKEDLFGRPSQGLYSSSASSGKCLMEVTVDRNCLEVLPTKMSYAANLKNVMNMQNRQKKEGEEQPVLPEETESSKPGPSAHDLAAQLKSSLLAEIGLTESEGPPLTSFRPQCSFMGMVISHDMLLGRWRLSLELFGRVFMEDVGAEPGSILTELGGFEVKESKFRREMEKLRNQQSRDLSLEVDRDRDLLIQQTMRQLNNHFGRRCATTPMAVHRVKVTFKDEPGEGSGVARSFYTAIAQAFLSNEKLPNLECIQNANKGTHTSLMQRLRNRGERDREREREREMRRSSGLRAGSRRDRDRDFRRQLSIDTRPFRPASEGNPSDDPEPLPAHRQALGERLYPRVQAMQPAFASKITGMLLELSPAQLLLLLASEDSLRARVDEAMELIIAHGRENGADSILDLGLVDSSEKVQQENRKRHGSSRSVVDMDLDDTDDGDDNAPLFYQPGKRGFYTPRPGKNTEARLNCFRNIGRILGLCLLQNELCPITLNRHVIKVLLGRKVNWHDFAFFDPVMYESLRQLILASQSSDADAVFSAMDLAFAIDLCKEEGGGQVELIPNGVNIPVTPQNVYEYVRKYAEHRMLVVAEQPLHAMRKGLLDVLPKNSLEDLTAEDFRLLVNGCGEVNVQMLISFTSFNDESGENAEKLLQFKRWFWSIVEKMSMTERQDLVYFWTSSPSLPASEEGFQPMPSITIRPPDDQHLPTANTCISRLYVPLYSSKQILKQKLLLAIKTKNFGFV

T1: TPMT A80P-BirA*-FLAG (human) (UniProt P51580)
T1 sequence: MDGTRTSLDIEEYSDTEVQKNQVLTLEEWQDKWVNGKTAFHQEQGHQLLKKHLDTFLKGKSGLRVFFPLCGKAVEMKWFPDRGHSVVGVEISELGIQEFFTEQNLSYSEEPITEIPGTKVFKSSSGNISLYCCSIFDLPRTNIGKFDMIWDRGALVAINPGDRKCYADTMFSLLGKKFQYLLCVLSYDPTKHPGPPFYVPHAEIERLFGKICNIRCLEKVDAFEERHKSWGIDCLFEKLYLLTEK

B1: SGT1 (protein, UniProt Q9Y2Z0 1-365)
chain: MAAAAAGTATSQRFFQSFSDALIDEDPQAALEELTKALEQKPDDAQYYCQRAYCHILLGNYCVAVADAKKSLELNPNNSTAMLRKGICEYHEKNYAAALETFTEGQKLDIETGFHRVGQAGLQLLTSSDPPALDSQSAGITGADANFSVWIKRCQEAQNGSESEVWTHQSKIKYDWYQTESQVVITLMIKNVQKNDVNVEFSEKELSALVKLPSGEDYNLKLELLHPIIPEQSTFKVLSTKIEIKLKKPEAVRWEKLEGQGDVPTPKQFVADVKNLYPSSSPYTRNWDKLVGEIKEEEKNEKLEGDAALNRLFQQIYSDGSDEVKRAMNKSFMESGGTVLSTNWSDVGKRKVEINPPDDMEWKKY
B2: FKBP4 (protein, UniProt Q02790 1-459)
chain: MTAEEMKATESGAQSAPLPMEGVDISPKQDEGVLKVIKREGTGTEMPMIGDRVFVHYTGWLLDGTKFDSSLDRKDKFSFDLGKGEVIKAWDIAIATMKVGEVCHITCKPEYAYGSAGSPPKIPPNATLVFEVELFEFKGEDLTEEEDGGIIRRIQTRGEGYAKPNEGAIVEVALEGYYKDKLFDQRELRFEIGEGENLDLPYGLERAIQRMEKGEHSIVYLKPSYAFGSVGKEKFQIPPNAELKYELHLKSFEKAKESWEMNSEEKLEQSTIVKERGTVYFKEGKYKQALLQYKKIVSWLEYESSFSNEEAQKAQALRLASHLNLAMCHLKLQAFSAAIESCNKALELDSNNEKGLFRRGEAHLAVNDFELARADFQKVLQLYPNNKAAKTQLAVCQQRIRRQLAREKKLYANMFERLAEEENKAKAEASSGDHPTDTEMKEEQKSNTAGSQSQVETEA
B3: FKBP5 (protein, UniProt Q13451 1-457)
chain: MTTDEGAKNNEESPTATVAEQGEDITSKKDRGVLKIVKRVGNGEETPMIGDKVYVHYKGKLSNGKKFDSSHDRNEPFVFSLGKGQVIKAWDIGVATMKKGEICHLLCKPEYAYGSAGSLPKIPSNATLFFEIELLDFKGEDLFEDGGIIRRTKRKGEGYSNPNEGATVEIHLEGRCGGRMFDCRDVAFTVGEGEDHDIPIGIDKALEKMQREEQCILYLGPRYGFGEAGKPKFGIEPNAELIYEVTLKSFEKAKESWEMDTKEKLEQAAIVKEKGTVYFKGGKYMQAVIQYGKIVSWLEMEYGLSEKESKASESFLLAAFLNLAMCYLKLREYTKAVECCDKALGLDSANEKGLYRRGEAQLLMNEFESAKGDFEKVLEVNPQNKAARLQISMCQKKAKEHNERDRRIYANMFKKFAEQDAKEEANKAMGKKTSEGVTNEKGTDSQAMEEEKPEGHV

molecular target: T1, TPMT A80P-BirA*-FLAG (human); assay: proximity labelling

binding, binds:
B1, B2, B3

molecular target: T1, TPMT A80P-BirA*-FLAG (human); assay: proximity labelling; remark: another data set of the same source

binding, binds:
BAG6 (from UniProt P46379 1-1132), BIRC6 (from UniProt Q9NR09 1-4857) (enzyme), PSMA2 (from UniProt P25787 1-234), PSMB2 (from UniProt P49721 1-201), PSMB4 (from UniProt P28070), UBR5 (from UniProt O95071 1-2799) (enzyme)
